## Library screen at single concentrations

Measurements from “University of Dundee, Small-Polar-MMV Screening Library” (2021), ChEMBL document CHEMBL3988442.

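Whole-parasite assay of Trypanosoma brucei over 72 hours; the read-out is not stated. Tested at 10 µM. The record gives no direction; compounds that gave an IC50 in retests scored well above the rest, so higher reads as stronger inhibition. Values scatter widely below zero; nearly all retest evidence comes from the higher of the two concentrations used. About 2,700 compounds were tested under these conditions; 0.51% (about 14) showed 50% or more at least once.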

The filed quantity is “Percent Effect” (%).
The controls that fix the scale are not given in the record; negative values are as filed.
The compounds are a random part of those screened.

* Cn1ccnc1CN1CCCN(C(=O)COCC2CC2)CC1 : -11.64%
* Cc1ccc(CNC(=O)N(C)Cc2cnn(C)c2)s1 : -38.64%
* COc1ccc(-c2nnc(CNCCn3cccn3)o2)cc1 : 2.521%
* CNc1snc(C)c1C(=O)N1CCC(Nc2ccc(C)nn2)CC1 : -15.19%
* Cc1ccc(C(=O)N2CCCN(Cc3cscn3)CC2)o1 : -30.82%
* CC(C)(C)OC(=O)N1CCN(C(=O)CCn2cccn2)CC1 : -2.395%
* CC(NCc1cccc(Cl)c1)c1ccc(OCC(=O)NC2CC2)cc1 (centres undefined) : 10.12%
* CNc1cc(N2CCCC2CNCc2csc(C)n2)ncn1 (centres undefined) : -9.419%
* Cn1c(NCC(O)c2ccccc2F)c(C#N)c(=O)n(C)c1=O (centres undefined) : 6.183%
* Cc1csc(C2CCCCN2C(=O)c2cc(C3CC3)[nH]n2)n1 (centres undefined) : -24.83%
* CC(=O)NC1CCCN(C(=O)Nc2cccnc2-n2cccn2)C1 (centres undefined) : -34.36%
* COc1ccc(CC(=O)N2CCCC(n3cccn3)C2)cc1F (centres undefined) : -38.31%
* Cn1nc2c(cc1=O)CN(Cc1nc(-c3ccccn3)no1)CC2 : 12.7%
* CC(C)Cc1noc(CN2CCN(S(C)(=O)=O)CC2)n1 : 1.956%
* Cc1nn(C)c(C)c1C1COCCN1C(=O)c1cc(F)ccc1F (centres undefined) : -48.86%
* CC(C)c1n[nH]c(C2CN(C(=O)CCc3cscn3)CCO2)n1 (centres undefined) : -53.26%
* O=C(NCCNc1ccccn1)Nc1cc(C(F)(F)F)c[nH]c1=O : -58.18%
* Cc1ccc(CN(CC(=O)N2CCOC(C)C2)C2CC2)cc1 (centres undefined) : -74.01%
* CCOc1ncccc1CNC(=O)NCC(O)c1ccccc1OC (centres undefined) : -66.27%
* CCc1nc(CN2CCN(C(=O)c3cncnc3CC)CC2)cs1 : -71.6%
* Cc1nc(C)n(CC2CCCN(CCOc3ccc(C#N)cc3)C2)n1 (centres undefined) : -9.365%
* Cc1[nH]ncc1CCCNC(=O)N1CCCC(c2nncn2C)C1 (centres undefined) : -48.4%
* CCN(Cc1nc2c(cnn2C)c(=O)[nH]1)c1cccc(C)c1 : -31.56%
* CN1CCC/C1=N\S(=O)(=O)c1ccc(NC(=O)c2ccc(Cl)cc2)cc1 : -53.86%
* Cc1ccc(NC2CCN(C(=O)c3c(C)oc(C)c3C)CC2)nn1 : -53.41%
* CCC(CC)c1nnc(NC(=O)NC(C)Cn2cccn2)s1 (centres undefined) : -38.66%
* CCC(CC)C(=O)N(C)CC(=O)Nc1ccc(Br)cn1 : -7.827%
* CC(C)C(C)NC(=O)Nc1ccc(F)c(C(N)=O)c1 (centres undefined) : -32.9%
* Cc1oc(C)c(C(=O)NCc2cccc(C(N)=O)c2)c1C : -44.98%
* c1ccc(-c2cc(CN3CCCC(Cn4cncn4)C3)on2)cc1 (centres undefined) : -40.06%
* CCOc1cccc(CNC(=O)N2CCC(Cc3cnn(C)c3)C2)c1 (centres undefined) : -6.08%
* O=C(Cc1csc(-c2ccco2)n1)N1CCSCC1 : -23.13%
* COCCN(C)C(C)c1cccc(S(N)(=O)=O)c1 (centres undefined) : -37.1%
* Cc1ccc(C2CCCN2S(=O)(=O)N(C)CCc2ccccn2)o1 (centres undefined) : -83.56%
* CC(NC(=O)c1ccoc1)c1ccc2c(c1)CCC(=O)N2 (centres undefined) : -37.53%
* Cc1nc(C)n(CC2CCCN(CCOc3ccccc3F)C2)n1 (centres undefined) : -5.032%
* CCOc1ncccc1CNC(=O)Nc1ccc(OC)c(OC)c1 : -34.43%
* CCc1ncc2c(n1)CN(CC(=O)Nc1cc(C)on1)CC2 : -48.05%
* Cc1cnn(CCC(=O)N2CCN(c3nccs3)CC2)c1 : -31.27%
* CCc1ccsc1C(=O)N1CCCN(Cc2cnn(CC)c2)CC1 : -11.67%
* CS(=O)(=O)NC1CCCN(C(=O)Nc2cccnc2)C1 (centres undefined) : -41.33%
* Cn1cc(-c2nc(CN3CCCCC3Cn3cncn3)cs2)cn1 (centres undefined) : -60.18%
* CC(C(=O)NCC(F)(F)F)N1CCC(N2CCN(C)C2=O)CC1 (centres undefined) : -62.23%
* CCc1nnc(NC(=O)Cc2c(C)nc(C)[nH]c2=O)s1 : -27.25%
* Cc1nnc2n1CCN(C(=O)c1cc(Cl)c(Br)[nH]1)C2 : -69.98%
* Cc1cc(NC(=O)CN2CCN(c3nc(C)cs3)C(C)C2)on1 (centres undefined) : -77.71%
* CCc1nccn1C1CCCN(C(=O)c2c(C)nsc2NC)C1 (centres undefined) : -34.55%
* CC(C)CS(=O)(=O)CC(=O)NC1CCCCNC1=O (centres undefined) : -44.84%